Experimental data: PubChem BioAssay AID493246 (Drosophila RNAi Screening Center, 2011)
In all, the deposit lists about 21,000 reagents; below is a random part of those with a known target gene and a result. In the full data, 429 (2%) were called active. 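Values are raw and not normalised between plates; calls rest on per-plate z-scores that were not deposited.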 Unmarked entries are inactive. Reagents against one gene are numbered here. Names joined by + are all predicted targets of the reagent. Not stated in the record: the amount of reagent, the time to read-out.

- Test: 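Genome-wide search for dsRNAs that reduce cell number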 (primary screen)
- System: Drosophila Kc and S2R+ cells
- Knock-down reagent: long dsRNA against Drosophila genes
- Measurement: 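Raw, unnormalised count of remaining cells in each well; per-plate z-scores of cell number underlie the calls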
- Reading the numbers: Kc cell number and S2R+ cell number: higher = more cells remaining
- Call rule: 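Active when the per-plate z-score of cell number is 3 or more in the direction of fewer cells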

Target gene | dsRNA no. | Kc cell number, rep 1 | Kc cell number, rep 2 | S2R+ cell number, rep 1 | S2R+ cell number, rep 2
CG17271 | 1 | 1.26e6 | 1.20e6 | 1.07e6 | 1.19e6
pst (pastrel) | 1 | 1.52e6 | 1.57e6 | 1.36e6 | 1.30e6
CG43861 | 1 | 1.44e6 | 1.53e6 | 1.29e6 | 2.96e5
alpha-Est5 (alpha-Esterase-5) | 1 | 1.63e6 | 1.63e6 | 1.21e6 | 1.30e6
CG14252 | 1 | 1.48e6 | 1.51e6 | 1.00e6 | 1.11e6
mRNA-cap (mRNA-capping-enzyme) | 1 | 1.62e6 | 1.68e6 | 8.67e5 | 9.53e5
apn (apnoia) | 1 | 1.51e6 | 1.56e6 | 1.21e6 | 1.29e6
rho-5 (rhomboid-5) | 1 | 1.55e6 | 1.64e6 | 1.30e6 | 1.41e6
Apc2 (Adenomatous polyposis coli 2) | 1 | 1.75e6 | 1.79e6 | 1.31e6 | 1.39e6
Ccdc39 (Coiled-coil domain containing protein 39) | 1 | 1.39e6 | 1.43e6 | 1.24e6 | 1.44e6
Mer (Merlin) | 1 | 1.54e6 | 1.58e6 | 1.04e6 | 1.20e6
Ttc30 (Tetratricopeptide repeat domain 30) | 1 | 1.37e6 | 1.44e6 | 1.02e6 | 1.12e6
Ttc30 (Tetratricopeptide repeat domain 30) | 2 | 1.61e6 | 1.72e6 | 1.27e6 | 1.43e6
Dyrk3 (Dual-specificity tyrosine phosphorylation-regulated kinase 3) | 1 | 1.54e6 | 1.52e6 | 1.03e6 | 1.13e6
CG6938 | 1 | 1.51e6 | 1.75e6 | 1.29e6 | 1.39e6
w (white) | 1 | 1.15e6 | 1.49e6 | 1.11e6 | 1.11e6
w (white) | 2 | 1.38e6 | 1.38e6 | 9.86e5 | 1.09e6
Trx2 (Thioredoxin 2) | 1 | 1.53e6 | 1.58e6 | 1.21e6 | 1.38e6
Mgat4b | 1 | 1.40e6 | 1.39e6 | 1.18e6 | 1.30e6
CG16957 | 1 | 1.48e6 | 1.56e6 | 1.25e6 | 1.38e6
RhoBTB (Rho-related BTB domain containing) | 1 | 1.41e6 | 1.46e6 | 1.24e6 | 1.31e6
CG15740 | 1 | 7.11e5 (active) | 1.15e6 | 4.75e5 | 4.09e5
pen-2 (presenilin enhancer) | 1 | 5.54e5 | – | 7.57e5 | –
CG5644 | 1 | 1.23e6 | 1.30e6 | 1.20e6 | 1.16e6
CG34106 | 1 | 1.52e6 | 1.53e6 | 9.34e5 | 1.16e6
CG9992 | 1 | 6.57e5 | – | 9.40e5 | –
dj (don juan) | 1 | 1.59e6 | 1.89e6 | 1.30e6 | 1.34e6
CG31815 | 1 | 1.41e6 | 1.47e6 | 8.94e5 | 1.07e6
Gr61a (Gustatory receptor 61a) | 1 | 1.22e6 | 1.33e6 | 1.08e6 | 1.31e6
TSG101 (Tumor susceptibility gene 101) | 1 | 1.25e6 | 1.34e6 | 1.19e6 | 1.31e6
MCTS1 (Malignant T cell amplified sequence 1) | 1 | 6.02e5 | – | 9.44e5 | –
CG10470 | 1 | 1.50e6 | 1.58e6 | 1.25e6 | 3.00e5
CG11000 | 1 | 1.44e6 | 1.54e6 | 1.32e6 | 1.45e6

Quoted from the listing, 6 entries:
Target gene | dsRNA no. | Kc cell number, rep 1 | Kc cell number, rep 2 | S2R+ cell number, rep 1 | S2R+ cell number, rep 2
CG34106 | 1 | 1.52e6 | 1.53e6 | 9.34e5 | 1.16e6
CG9992 | 1 | 6.57e5 | – | 9.40e5 | –
dj (don juan) | 1 | 1.59e6 | 1.89e6 | 1.30e6 | 1.34e6
CG31815 | 1 | 1.41e6 | 1.47e6 | 8.94e5 | 1.07e6
Gr61a (Gustatory receptor 61a) | 1 | 1.22e6 | 1.33e6 | 1.08e6 | 1.31e6
TSG101 (Tumor susceptibility gene 101) | 1 | 1.25e6 | 1.34e6 | 1.19e6 | 1.31e6

The listing continues:
Target gene | dsRNA no. | Kc cell number, rep 1 | Kc cell number, rep 2 | S2R+ cell number, rep 1 | S2R+ cell number, rep 2
CG15080 | 1 | 1.97e6 | 1.87e6 | 1.27e6 | 1.45e6
Sgsh (N-sulfoglucosamine sulfohydrolase) | 1 | 1.42e6 | 1.39e6 | 8.54e5 | 1.07e6
lush | 1 | 1.30e6 | 1.31e6 | 1.27e6 | 1.39e6
CG32241 | 1 | 1.46e6 | 1.34e6 | 1.05e6 | 1.16e6
PICK1 (Protein interacting with C kinase 1) | 1 | 1.70e6 | 1.72e6 | 1.38e6 | 1.56e6
Cyp12a4 (Cytochrome P450 12a4) | 1 | 1.34e6 | 1.39e6 | 1.03e6 | 1.10e6
Cyp6d5 (Cytochrome P450 6d5) | 1 | 1.46e6 | 1.52e6 | 1.18e6 | 1.21e6
CG10748 | 1 | 1.44e6 | 1.37e6 | 1.30e6 | 1.38e6
Acp53C14c (Accessory gland protein 53C14c) | 1 | 5.17e5 | – | 7.26e5 | –
CG6769 | 1 | 1.54e6 | 1.62e6 | 1.07e6 | 1.23e6
Ak2 (Adenylate kinase 2) | 1 | 1.32e6 | 1.32e6 | 1.18e6 | 1.25e6
Sirt4 (Sirtuin 4) | 1 | 1.47e6 | 1.43e6 | 1.03e6 | 1.15e6
REPTOR-BP (REPTOR-binding partner) | 1 | 1.55e6 | 1.66e6 | 1.34e6 | 1.48e6
swa (swallow) | 1 | 5.56e5 | – | 9.21e5 | –
CG4338 | 1 | 1.55e6 | 1.64e6 | 1.21e6 | 1.37e6
Rcd2 (Reduction in Cnn dots 2) | 1 | 1.38e6 | 1.61e6 | 1.01e6 | 1.22e6
Dhdds (Dehydrodolichyl diphosphate synthase subunit) | 1 | 1.47e6 | 1.51e6 | 1.03e6 | 1.14e6
CG6974 | 1 | 1.23e6 | 1.33e6 | 1.16e6 | 1.25e6
CG1999 | 1 | 1.20e5 | – | 9.34e5 | –
repo (reversed polarity) | 1 | 1.42e6 | 1.36e6 | 9.48e5 | 1.07e6
CG34197 (retired record) | 1 | 5.39e5 | – | 7.92e5 | –
Cmtr1 (Cap methyltransferase 1) | 1 | 1.65e6 | 1.65e6 | 1.03e6 | 1.14e6
hog | 1 | 1.28e6 | 1.47e6 | 1.10e6 | 1.21e6
Mtmr6 (Myotubularin related protein 6) | 1 | 1.64e6 | 1.74e6 | 1.17e6 | 1.33e6
His-Psi:CR31616 + His-Psi:CR31615 | 1 | 2.39e5 (active) | – | 3.91e5 | –
fkh (fork head) | 1 | 1.56e6 | 1.61e6 | 1.04e6 | 1.16e6
